Assay results reported in the supplement of paper PMC12067093, “Discovery and optimisation of a covalent ligand for TRIM25 and its application to targeted protein ubiquitination” (Chemical Science, 2025).
Some of the results follow.

The chains behind the UniProt entries cited, without tags or fusion partners. Where a name states a change or a piece, a line headed by the entry shows the natural chain unless it says otherwise.
UniProt Q9Y4P3: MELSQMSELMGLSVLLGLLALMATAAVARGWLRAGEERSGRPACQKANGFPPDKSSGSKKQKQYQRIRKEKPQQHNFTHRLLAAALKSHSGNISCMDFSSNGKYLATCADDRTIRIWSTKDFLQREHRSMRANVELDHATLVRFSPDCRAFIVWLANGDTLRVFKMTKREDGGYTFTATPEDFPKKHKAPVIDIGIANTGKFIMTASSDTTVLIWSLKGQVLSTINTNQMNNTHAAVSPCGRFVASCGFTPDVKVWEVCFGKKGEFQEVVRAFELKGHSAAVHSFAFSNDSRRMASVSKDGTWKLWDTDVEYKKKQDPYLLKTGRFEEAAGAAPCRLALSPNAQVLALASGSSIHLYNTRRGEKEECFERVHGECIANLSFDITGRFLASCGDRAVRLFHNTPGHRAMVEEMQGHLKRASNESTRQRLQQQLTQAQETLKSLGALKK
UniProt Q15542, whole entry, looked up: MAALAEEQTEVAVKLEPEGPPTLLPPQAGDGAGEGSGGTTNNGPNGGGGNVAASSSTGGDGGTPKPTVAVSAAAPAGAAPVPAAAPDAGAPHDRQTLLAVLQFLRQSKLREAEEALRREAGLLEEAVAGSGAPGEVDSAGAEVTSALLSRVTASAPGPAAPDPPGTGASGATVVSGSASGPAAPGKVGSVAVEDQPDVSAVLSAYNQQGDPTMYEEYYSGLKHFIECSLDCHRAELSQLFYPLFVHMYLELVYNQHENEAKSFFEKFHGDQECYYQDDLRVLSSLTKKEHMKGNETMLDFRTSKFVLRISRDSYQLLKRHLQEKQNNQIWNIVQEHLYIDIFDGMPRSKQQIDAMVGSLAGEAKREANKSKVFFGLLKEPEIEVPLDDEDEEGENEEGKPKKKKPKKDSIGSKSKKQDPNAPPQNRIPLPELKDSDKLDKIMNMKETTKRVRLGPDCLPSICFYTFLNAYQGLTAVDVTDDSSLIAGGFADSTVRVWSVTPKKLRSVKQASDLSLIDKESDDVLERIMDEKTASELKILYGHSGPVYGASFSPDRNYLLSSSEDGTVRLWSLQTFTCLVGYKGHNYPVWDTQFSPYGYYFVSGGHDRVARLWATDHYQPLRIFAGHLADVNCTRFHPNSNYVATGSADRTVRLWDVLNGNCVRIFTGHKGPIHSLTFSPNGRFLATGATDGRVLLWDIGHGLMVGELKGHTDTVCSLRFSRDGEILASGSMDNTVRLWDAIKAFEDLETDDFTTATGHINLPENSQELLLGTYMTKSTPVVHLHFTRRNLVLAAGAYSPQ
UniProt Q6P1N9: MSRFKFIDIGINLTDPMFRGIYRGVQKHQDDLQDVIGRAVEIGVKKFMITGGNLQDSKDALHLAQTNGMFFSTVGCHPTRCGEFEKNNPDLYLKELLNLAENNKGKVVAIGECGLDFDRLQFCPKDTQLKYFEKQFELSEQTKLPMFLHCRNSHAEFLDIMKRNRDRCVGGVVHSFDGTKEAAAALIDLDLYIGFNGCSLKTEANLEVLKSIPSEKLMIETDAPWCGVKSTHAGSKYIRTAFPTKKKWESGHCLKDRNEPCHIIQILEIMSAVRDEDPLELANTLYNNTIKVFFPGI
UniProt Q86VP1, whole entry, looked up: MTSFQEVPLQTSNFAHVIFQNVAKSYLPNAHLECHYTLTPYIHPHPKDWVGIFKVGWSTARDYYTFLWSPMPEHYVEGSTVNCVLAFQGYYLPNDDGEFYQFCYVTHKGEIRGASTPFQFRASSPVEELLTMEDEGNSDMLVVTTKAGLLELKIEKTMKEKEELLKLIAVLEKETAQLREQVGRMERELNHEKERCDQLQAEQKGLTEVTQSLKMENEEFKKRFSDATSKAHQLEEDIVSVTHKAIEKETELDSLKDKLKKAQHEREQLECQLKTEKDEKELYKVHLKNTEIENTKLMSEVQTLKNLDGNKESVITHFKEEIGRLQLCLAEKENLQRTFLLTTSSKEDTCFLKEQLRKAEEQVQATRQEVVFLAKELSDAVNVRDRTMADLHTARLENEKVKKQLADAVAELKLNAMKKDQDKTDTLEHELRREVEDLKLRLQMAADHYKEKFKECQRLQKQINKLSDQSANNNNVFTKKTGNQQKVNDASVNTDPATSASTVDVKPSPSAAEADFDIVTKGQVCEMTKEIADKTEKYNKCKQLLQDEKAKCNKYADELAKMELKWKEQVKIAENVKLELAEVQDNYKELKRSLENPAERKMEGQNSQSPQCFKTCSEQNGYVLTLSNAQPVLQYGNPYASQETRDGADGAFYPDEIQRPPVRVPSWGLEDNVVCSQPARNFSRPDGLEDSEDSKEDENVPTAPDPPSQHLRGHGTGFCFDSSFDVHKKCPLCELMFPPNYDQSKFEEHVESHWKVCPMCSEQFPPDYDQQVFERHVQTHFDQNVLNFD
UniProt Q9BTW9: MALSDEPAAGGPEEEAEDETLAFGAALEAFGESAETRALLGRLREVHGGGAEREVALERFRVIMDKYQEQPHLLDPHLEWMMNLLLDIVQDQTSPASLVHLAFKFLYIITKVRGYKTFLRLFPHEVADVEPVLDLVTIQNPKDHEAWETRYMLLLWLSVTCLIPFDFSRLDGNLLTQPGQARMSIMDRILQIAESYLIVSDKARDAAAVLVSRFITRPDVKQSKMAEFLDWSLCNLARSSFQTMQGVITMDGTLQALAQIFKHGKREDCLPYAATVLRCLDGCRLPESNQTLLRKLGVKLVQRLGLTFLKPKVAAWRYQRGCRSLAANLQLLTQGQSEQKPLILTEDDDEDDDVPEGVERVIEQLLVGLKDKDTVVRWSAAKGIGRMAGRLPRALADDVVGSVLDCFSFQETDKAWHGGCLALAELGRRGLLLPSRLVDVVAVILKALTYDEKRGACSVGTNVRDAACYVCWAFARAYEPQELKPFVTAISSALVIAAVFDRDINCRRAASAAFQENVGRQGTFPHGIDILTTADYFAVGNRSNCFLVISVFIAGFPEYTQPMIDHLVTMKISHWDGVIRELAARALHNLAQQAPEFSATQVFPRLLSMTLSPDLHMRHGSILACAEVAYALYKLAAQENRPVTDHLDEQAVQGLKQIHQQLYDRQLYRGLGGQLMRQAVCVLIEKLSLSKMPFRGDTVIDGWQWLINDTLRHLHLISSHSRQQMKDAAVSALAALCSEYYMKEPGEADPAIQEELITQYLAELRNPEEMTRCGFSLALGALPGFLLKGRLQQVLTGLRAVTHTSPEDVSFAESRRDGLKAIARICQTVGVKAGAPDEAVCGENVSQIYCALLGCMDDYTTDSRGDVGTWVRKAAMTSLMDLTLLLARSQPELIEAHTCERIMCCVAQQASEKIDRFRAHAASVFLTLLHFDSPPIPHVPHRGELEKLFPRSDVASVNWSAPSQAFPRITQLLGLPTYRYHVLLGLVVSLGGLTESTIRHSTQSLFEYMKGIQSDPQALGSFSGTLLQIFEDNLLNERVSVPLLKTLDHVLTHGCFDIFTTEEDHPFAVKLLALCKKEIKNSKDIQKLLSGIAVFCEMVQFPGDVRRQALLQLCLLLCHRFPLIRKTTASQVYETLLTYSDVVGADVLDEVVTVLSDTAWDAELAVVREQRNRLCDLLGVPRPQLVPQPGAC
UniProt Q92609: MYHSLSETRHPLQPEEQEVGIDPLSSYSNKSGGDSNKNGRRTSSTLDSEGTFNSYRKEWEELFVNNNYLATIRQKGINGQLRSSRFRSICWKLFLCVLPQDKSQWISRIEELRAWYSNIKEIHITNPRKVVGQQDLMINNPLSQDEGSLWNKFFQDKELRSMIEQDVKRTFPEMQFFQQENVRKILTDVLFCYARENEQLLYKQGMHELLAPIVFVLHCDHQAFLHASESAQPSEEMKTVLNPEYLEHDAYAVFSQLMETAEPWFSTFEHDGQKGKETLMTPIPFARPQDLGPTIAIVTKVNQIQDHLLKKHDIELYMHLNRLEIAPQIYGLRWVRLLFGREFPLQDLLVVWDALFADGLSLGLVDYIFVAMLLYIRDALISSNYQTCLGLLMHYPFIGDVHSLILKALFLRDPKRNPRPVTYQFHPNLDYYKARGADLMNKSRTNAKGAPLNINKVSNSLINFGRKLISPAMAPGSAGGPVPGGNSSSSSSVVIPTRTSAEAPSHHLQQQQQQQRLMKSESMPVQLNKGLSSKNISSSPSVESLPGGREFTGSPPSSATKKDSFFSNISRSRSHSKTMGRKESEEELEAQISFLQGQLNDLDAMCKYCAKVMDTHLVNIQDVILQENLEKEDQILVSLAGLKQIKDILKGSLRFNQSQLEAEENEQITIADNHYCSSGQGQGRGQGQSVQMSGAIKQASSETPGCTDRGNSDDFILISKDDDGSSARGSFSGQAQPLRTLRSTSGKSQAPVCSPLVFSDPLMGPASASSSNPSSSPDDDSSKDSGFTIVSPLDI
UniProt Q9UHD2: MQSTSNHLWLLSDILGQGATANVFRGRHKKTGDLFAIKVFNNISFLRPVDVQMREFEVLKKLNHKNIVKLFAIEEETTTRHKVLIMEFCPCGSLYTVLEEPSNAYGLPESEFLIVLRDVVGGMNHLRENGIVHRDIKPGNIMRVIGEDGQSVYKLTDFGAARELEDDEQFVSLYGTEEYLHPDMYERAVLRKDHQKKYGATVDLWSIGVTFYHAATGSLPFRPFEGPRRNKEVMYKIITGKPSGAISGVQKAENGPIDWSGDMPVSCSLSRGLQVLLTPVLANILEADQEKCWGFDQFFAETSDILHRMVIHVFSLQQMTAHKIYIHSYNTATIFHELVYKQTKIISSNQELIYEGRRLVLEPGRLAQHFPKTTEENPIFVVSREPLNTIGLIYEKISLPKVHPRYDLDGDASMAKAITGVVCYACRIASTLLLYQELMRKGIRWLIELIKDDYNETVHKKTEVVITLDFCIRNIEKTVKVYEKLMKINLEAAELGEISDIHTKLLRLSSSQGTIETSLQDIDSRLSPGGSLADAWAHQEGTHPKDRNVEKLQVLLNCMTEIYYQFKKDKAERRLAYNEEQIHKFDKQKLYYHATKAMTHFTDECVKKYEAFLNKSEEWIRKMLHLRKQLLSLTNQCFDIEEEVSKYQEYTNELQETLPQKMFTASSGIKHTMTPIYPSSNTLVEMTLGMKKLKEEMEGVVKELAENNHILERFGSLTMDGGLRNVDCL
UniProt O75529: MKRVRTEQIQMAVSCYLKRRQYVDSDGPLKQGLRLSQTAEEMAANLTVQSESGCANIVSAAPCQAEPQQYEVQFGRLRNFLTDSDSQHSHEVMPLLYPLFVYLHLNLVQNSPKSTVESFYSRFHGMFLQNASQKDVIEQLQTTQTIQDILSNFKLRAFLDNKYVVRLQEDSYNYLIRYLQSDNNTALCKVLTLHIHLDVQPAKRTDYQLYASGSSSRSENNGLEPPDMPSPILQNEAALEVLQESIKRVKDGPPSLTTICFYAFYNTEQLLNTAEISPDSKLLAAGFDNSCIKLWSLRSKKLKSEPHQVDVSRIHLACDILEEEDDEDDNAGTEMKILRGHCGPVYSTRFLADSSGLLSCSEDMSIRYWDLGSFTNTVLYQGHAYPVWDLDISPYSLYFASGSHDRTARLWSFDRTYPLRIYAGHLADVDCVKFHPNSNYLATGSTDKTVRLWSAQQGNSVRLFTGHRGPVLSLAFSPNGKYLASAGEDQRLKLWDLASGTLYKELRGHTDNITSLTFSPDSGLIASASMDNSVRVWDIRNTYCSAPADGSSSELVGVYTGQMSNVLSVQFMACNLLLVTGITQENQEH
UniProt O75410: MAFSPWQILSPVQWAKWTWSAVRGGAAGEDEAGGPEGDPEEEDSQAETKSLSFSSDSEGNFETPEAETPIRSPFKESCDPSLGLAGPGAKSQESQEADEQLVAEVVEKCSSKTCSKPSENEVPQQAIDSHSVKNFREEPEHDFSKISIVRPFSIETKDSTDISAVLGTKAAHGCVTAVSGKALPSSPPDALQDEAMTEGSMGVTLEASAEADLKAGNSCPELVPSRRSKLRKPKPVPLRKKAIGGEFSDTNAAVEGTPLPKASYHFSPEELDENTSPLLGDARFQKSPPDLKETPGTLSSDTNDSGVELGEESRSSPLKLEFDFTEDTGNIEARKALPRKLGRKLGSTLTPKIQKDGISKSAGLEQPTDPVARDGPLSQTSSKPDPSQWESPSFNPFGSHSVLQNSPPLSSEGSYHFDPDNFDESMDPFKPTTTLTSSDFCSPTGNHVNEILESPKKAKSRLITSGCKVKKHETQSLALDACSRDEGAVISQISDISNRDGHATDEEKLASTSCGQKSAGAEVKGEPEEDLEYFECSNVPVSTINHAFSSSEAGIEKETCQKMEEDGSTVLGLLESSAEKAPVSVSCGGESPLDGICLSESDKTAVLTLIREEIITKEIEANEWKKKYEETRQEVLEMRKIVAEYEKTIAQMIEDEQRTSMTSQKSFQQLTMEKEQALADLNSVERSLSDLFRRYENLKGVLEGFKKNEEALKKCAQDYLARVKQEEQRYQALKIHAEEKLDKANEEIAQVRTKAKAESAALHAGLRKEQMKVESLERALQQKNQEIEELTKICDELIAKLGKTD

Compound: CC1Cc2ccccc2N1C(=O)C1CCCN(C1)C(=O)CCl (mixture of isomers) [TRIM25 ligand 11 (diastereomer mixture)]
Test: probe-labelled cysteine peptide fold change vs DMSO (competition) (log2 fold change); higher = less target engagement (more negative = stronger competition)
Settings: THP-1, incubation time: 4 h
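Further: competitive chemoproteomic profiling in live THP-1 cells with an iodoacetamide desthiobiotin (IA-DTB) probe, comparing probe-labelled peptide intensities in compound-treated cells against DMSO-treated controls.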

| Target | probe-labelled cysteine peptide fold change (10 µM) | probe-labelled cysteine peptide fold change (50 µM) |
| --- | --- | --- |
| TBL2_Q9Y4P3_391_FLASCGDR (UniProt Q9Y4P3) | -0.0125 | 0.0692 |
| TAF5_Q15542_715_GHTDTVCSLR (UniProt Q15542) | 0.0397 | 0.0903 |
| TCEA1_P23193_212_NVLCGNIPPDLFAR (UniProt P23193) | 0.0376 | 0.122 |
| TATDN1_Q6P1N9_113_VVAIGECGLDFDRLQFCPK (UniProt Q6P1N9) | -0.217 | -0.0464 |
| TAX1BP1_Q86VP1_328_LQLCLAEK (UniProt Q86VP1) | -0.0227 | -0.0783 |
| SYNE1_Q8NF91_6460_NLFSQAFPENGDNRDVIEDTLGCLLGR (UniProt Q8NF91) | -0.15 | -0.00366 |
| TAX1BP1_Q86VP1_196_ERCDQLQAEQK (UniProt Q86VP1) | -0.0985 | -0.128 |
| TBCD_Q9BTW9_457_RGACSVGTNVR (UniProt Q9BTW9) | -0.032 | 0.172 |
| TBCD_Q9BTW9_406_ALADDVVGSVLDCFSFQETDK (UniProt Q9BTW9) | 0.403 | 0.00514 |
| TBC1D5_Q92609_706_QASSETPGCTDR (UniProt Q92609) | -0.0244 | -0.083 |
| TBK1_Q9UHD2_292_CWGFDQFFAETSDILHR (UniProt Q9UHD2) | 0.223 | 0.00117 |
| TAF5L_O75529_431_IYAGHLADVDCVK (UniProt O75529) | 0.0455 | 0.105 |
| TACC1_O75410_174_AAHGCVTAVSGK (UniProt O75410) | -0.0137 | -0.145 |
| TBL2_Q9Y4P3_335_FEEAAGAAPCR (UniProt Q9Y4P3) | 0.107 | -0.0485 |
